These are yes or no findings as the source states them, for the method shown. In cells and extracts the contact can be indirect. A yes stands for co-enrichment or nearness to the bait. Other partners may have been found.
Molecular target: p65(wt)-HA-miniTurbo (human) (UniProt Q04206)

Binder	binding
PHLDA2 (protein, UniProt Q53GA4 1-152) MKSPDEVLREGELEKRSDSLFQLWKKKRGVLTSDRLSLFPASPRARPKELRFHSILKVDCVERTGKYVYFTIVTTDHKEIDFRCAGESCWNAAIALALIDFQNRRALQDFRSRQERTAPAAPAEDAVAAAAAAPSEPSEPSRPSPQPKPRTP	binds
SKI (protein, UniProt P12755 1-728) MEAAAGGRGCFQPHPGLQKTLEQFHLSSMSSLGGPAAFSARWAQEAYKKESAKEAGAAAVPAPVPAATEPPPVLHLPAIQPPPPVLPGPFFMPSDRSTERCETVLEGETISCFVVGGEKRLCLPQILNSVLRDFSLQQINAVCDELHIYCSRCTADQLEILKVMGILPFSAPSCGLITKTDAERLCNALLYGGAYPPPCKKELAASLALGLELSERSVRVYHECFGKCKGLLVPELYSSPSAACIQCLDCRLMYPPHKFVVHSHKALENRTCHWGFDSANWRAYILLSQDYTGKEEQARLGRCLDDVKEKFDYGNKYKRRVPRVSSEPPASIRPKTDDTSSQSPAPSEKDKPSSWLRTLAGSSNKSLGCVHPRQRLSAFRPWSPAVSASEKELSPHLPALIRDSFYSYKSFETAVAPNVALAPPAQQKVVSSPPCAAAVSRAPEPLATCTQPRKRKLTVDTPGAPETLAPVAAPEEDKDSEAEVEVESREEFTSSLSSLSSPSFTSSSSAKDLGSPGARALPSAVPDAAAPADAPSGLEAELEHLRQALEGGLDTKEAKEKFLHEVVKMRVKQEEKLSAALQAKRSLHQELEFLRVAKKEKLREATEAKRNLRKEIERLRAENEKKMKEANESRLRLKRELEQARQARVCDKGCEAGRLRAKYSAQIEDLQVKLQHAEADREQLRADLLREREAREHLEKVVKELQEQLWPRARPEAAGSEGAAELEP	binds
PHC1 (protein, UniProt P78364 1-1004) METESEQNSNSTNGSSSSGGSSRPQIAQMSLYERQAVQALQALQRQPNAAQYFHQFMLQQQLSNAQLHSLAAVQQATIAASRQASSPNTSTTQQQTTTTQASINLATTSAAQLISRSQSVSSPSATTLTQSVLLGNTTSPPLNQSQAQMYLRPQLGNLLQVNRTLGRNVPLASQLILMPNGAVAAVQQEVPSAQSPGVHADADQVQNLAVRNQQASAQGPQMQGSTQKAIPPGASPVSSLSQASSQALAVAQASSGATNQSLNLSQAGGGSGNSIPGSMGPGGGGQAHGGLGQLPSSGMGGGSCPRKGTGVVQPLPAAQTVTVSQGSQTEAESAAAKKAEADGSGQQNVGMNLTRTATPAPSQTLISSATYTQIQPHSLIQQQQQIHLQQKQVVIQQQIAIHHQQQFQHRQSQLLHTATHLQLAQQQQQQQQQQQQQQQPQATTLTAPQPPQVPPTQQVPPSQSQQQAQTLVVQPMLQSSPLSLPPDAAPKPPIPIQSKPPVAPIKPPQLGAAKMSAAQQPPPHIPVQVVGTRQPGTAQAQALGLAQLAAAVPTSRGMPGTVQSGQAHLASSPPSSQAPGALQECPPTLAPGMTLAPVQGTAHVVKGGATTSSPVVAQVPAAFYMQSVHLPGKPQTLAVKRKADSEEERDDVSTLGSMLPAKASPVAESPKVMDEKSSLGEKAESVANVNANTPSSELVALTPAPSVPPPTLAMVSRQMGDSKPPQAIVKPQILTHIIEGFVIQEGAEPFPVGCSQLLKESEKPLQTGLPTGLTENQSGGPLGVDSPSAELDKKANLLKCEYCGKYAPAEQFRGSKRFCSMTCAKRYNVSCSHQFRLKRKKMKEFQEANYARVRRRGPRRSSSDIARAKIQGKCHRGQEDSSRGSDNSSYDEALSPTSPGPLSVRAGHGERDLGNPNTAPPTPELHGINPVFLSSNPSRWSVEEVYEFIASLQGCQEIAEEFRSQEIDGQALLLLKEEHLMSAMNIKLGPALKICAKINVLKET	binds
SKIL (protein, UniProt P12757 1-684) MENLQTNFSLVQGSTKKLNGMGDDGSPPAKKMITDIHANGKTINKVPTVKKEHLDDYGEAPVETDGEHVKRTCTSVPETLHLNPSLKHTLAQFHLSSQSSLGGPAAFSARHSQESMSPTVFLPLPSPQVLPGPLLIPSDSSTELTQTVLEGESISCFQVGGEKRLCLPQVLNSVLREFTLQQINTVCDELYIYCSRCTSDQLHILKVLGILPFNAPSCGLITLTDAQRLCNALLRPRTFPQNGSVLPAKSSLAQLKETGSAFEVEHECLGKCQGLFAPQFYVQPDAPCIQCLECCGMFAPQTFVMHSHRSPDKRTCHWGFESAKWHCYLHVNQKYLGTPEEKKLKIILEEMKEKFSMRSGKRNQSKTDAPSGMELQSWYPVIKQEGDHVSQTHSFLHPSYYLYMCDKVVAPNVSLTSAVSQSKELTKTEASKSISRQSEKAHSSGKLQKTVSYPDVSLEEQEKMDLKTSRELCSRLDASISNNSTSKRKSESATCNLVRDINKVGIGLVAAASSPLLVKDVICEDDKGKIMEEVMRTYLKQQEKLNLILQKKQQLQMEVKMLSSSKSMKELTEEQQNLQKELESLQNEHAQRMEEFYVEQKDLEKKLEQIMKQKCTCDSNLEKDKEAEYAGQLAELRQRLDHAEADRQELQDELRQEREARQKLEMMIKELKLQILKSSKTAKE	binds
RAD54L2 (protein, UniProt Q9Y4B4 1-1467) MSDESASGSDPDLDPDVELEDAEEEEEEEEVAVEECDRDDEEDLLDDPSLEGMCGTEHAQLGEDGQQPPRCTSTTSSQSEPSEQLRRHQGKNLASEDPKKKRAQKPSHMRRNIRKLLREDQLEPVTKAAQQEELERRKRLEQQRKDYAAPIPTVPLEFLPEEIALRASDGPQLPPRVLAQEVICLDSSSGSEDEKSSRDEVIELSSGEEDTLHIVDSSESVSEDDEEEEKGGTHVNDVLNQRDALGRVLVNLNHPPEEENVFLAPQLARAVKPHQIGGIRFLYDNLVESLERFKTSSGFGCILAHSMGLGKTLQVISFIDVLFRHTPAKTVLAIVPVNTLQNWLAEFNMWLPPPEALPADNKPEEVQPRFFKVHILNDEHKTMASRAKVMADWVSEGGVLLMGYEMYRLLTLKKSFATGRPKKTKKRSHPVIIDLDEEDRQQEFRREFEKALCRPGPDVVICDEGHRIKNCQASTSQALKNIRSRRRVVLTGYPLQNNLIEYWCMVDFVRPDFLGTRQEFSNMFERPILNGQCIDSTPQDVRLMRYRSHVLHSLLEGFVQRRGHTVLKIHLPAKEENVILVRLSKIQRDLYTQFMDRFRDCGSSGWLGLNPLKAFCVCCKIWNHPDVLYEALQKESLANEQDLDVEELGSAGTSARCPPQGTKGKGEDSTLASSMGEATNSKFLQGVGFNPFQERGNNIVTYEWAKDLLTNYQTGVLENSPKMVLLFHLIEESVKLGDKILVFSQSLSTLALIEEFLGKREVPCPPGTEGQGAQKWVRNISYFRLDGSTPAFERERLINQFNDPSNLTTWLFLLSTRAGCLGVNLIGANRVVVFDASWNPCHDAQAVCRVYRYGQKKPCYIYRLVADYTLEKKIYDRQISKQGMSDRVVDDLNPMLNFTRKEVENLLHFVEKEPAPQVSLNVKGIKESVLQLACLKYPHLITKEPFEHESLLLNRKDHKLTKAEKKAAKKSYEEDKRTSVPYTRPSYAQYYPASDQSLTSIPAFSQRNWQPTLKGDEKPVASVRPVQSTPIPMMPRHVPLGGSVSSASSTNPSMNFPINYLQRAGVLVQKVVTTTDIVIPGLNSSTDVQARINAGESIHIIRGTKGTYIRTSDGRIFAVRATGKPKVPEDGRMAASGSQGPSCESTSNGRHSASSPKAPDPEGLARPVSPDSPEIISELQQYADVAAARESRQSSPSTNAALPGPPAQLMDSSAVPGTALGTEPRLGGHCLNSSLLVTGQPCGDRHPVLDLRGHKRKLATPPAAQESSRRRSRKGHLPAPVQPYEHGYPVSGGFAMPPVSLNHNLTTPFTSQAGENSLFMGSTPSYYQLSNLLADARLVFPVTTDPLVPAGPVSSSSTATSVTASNPSFMLNPSVPGILPSYSLPFSQPLLSEPRMFAPFPSPVLPSNLSRGMSIYPGYMSPHAGYPAGGLLRSQVPPFDSHEVAEVGFSSNDDEDKDDDVIEVTGK	binds
SIX5 (protein, UniProt Q8N196 1-739) MATLPAEPSAGPAAGGEAVAAAAATEEEEEEARQLLQTLQAAEGEAAAAAGAGAGAAAAGAEGPGSPGVPGSPPEAASEPPTGLRFSPEQVACVCEALLQAGHAGRLSRFLGALPPAERLRGSDPVLRARALVAFQRGEYAELYRLLESRPFPAAHHAFLQDLYLRARYHEAERARGRALGAVDKYRLRKKFPLPKTIWDGEETVYCFKERSRAALKACYRGNRYPTPDEKRRLATLTGLSLTQVSNWFKNRRQRDRTGAGGGAPCKSESDGNPTTEDESSRSPEDLERGAAPVSAEAAAQGSIFLAGTGPPAPCPASSSILVNGSFLAASGSPAVLLNGGPVIINGLALGEASSLGPLLLTGGGGAPPPQPSPQGASETKTSLVLDPQTGEVRLEEAQSEAPETKGAQVAAPGPALGEEVLGPLAQVVPGPPTAATFPLPPGPVPAVAAPQVVPLSPPPGYPTGLSPTSPLLNLPQVVPTSQVVTLPQAVGPLQLLAAGPGSPVKVAAAAGPANVHLINSGVGVTALQLPSATAPGNFLLANPVSGSPIVTGVALQQGKIILTATFPTSMLVSQVLPPAPGLALPLKPETAISVPEGGLPVAPSPALPEAHALGTLSAQQPPPAAATTSSTSLPFSPDSPGLLPNFPAPPPEGLMLSPAAVPVWSAGLELSAGTEGLLEAEKGLGTQAPHTVLRLPDPDPEGLLLGATAGGEVDEGLEAEAKVLTQLQSVPVEEPLEL	binds

Now from value to binder:

binding	Binder
binds	TBX1 (protein, UniProt O43435 1-398) MHFSTVTRDMEAFTASSLSSLGAAGGFPGAASPGADPYGPREPPPPPPRYDPCAAAAPGAPGPPPPPHAYPFAPAAGAATSAAAEPEGPGASCAAAAKAPVKKNAKVAGVSVQLEMKALWDEFNQLGTEMIVTKAGRRMFPTFQVKLFGMDPMADYMLLMDFVPVDDKRYRYAFHSSSWLVAGKADPATPGRVHYHPDSPAKGAQWMKQIVSFDKLKLTNNLLDDNGHIILNSMHRYQPRFHVVYVDPRKDSEKYAEENFKTFVFEETRFTAVTAYQNHRITQLKIASNPFAKGFRDCDPEDWPRNHRPGALPLMSAFARSRNPVASPTQPSGTEKGGHVLKDKEVKAETSRNTPEREVELLRDAGGCVNLGLPCPAECQPFNTQGLVAGRTAGDRLC
binds	ZBTB34 (protein, UniProt Q8NCN2 1-500) MDSSSFIQFDVPEYSSTVLSQLNELRLQGKLCDIIVHIQGQPFRAHKAVLAASSPYFRDHSALSTMSGLSISVIKNPNVFEQLLSFCYTGRMSLQLKDVVSFLTAASFLQMQCVIDKCTQILESIHSKISVGDVDSVTVGAEENPESRNGVKDSSFFANPVEISPPYCSQGRQPTASSDLRMETTPSKALRSRLQEEGHSDRGSSGSVSEYEIQIEGDHEQGDLLVRESQITEVKVKMEKSDRPSCSDSSSLGDDGYHTEMVDGEQVVAVNVGSYGSVLQHAYSYSQAASQPTNVSEAFGSLSNSSPSRSMLSCFRGGRARQKRALSVHLHSDLQGLVQGSDSEAMMNNPGYESSPRERSARGHWYPYNERLICIYCGKSFNQKGSLDRHMRLHMGITPFVCKFCGKKYTRKDQLEYHIRGHTDDKPFRCEICGKCFPFQGTLNQHLRKNHPGVAEVRSRIESPERTDVYVEQKLENDASASEMGLDSRMEIHTVSDAPD

From publication PMC11850942
